# Experimental data: paper PMC12548414
# In all, about 1,600 compounds went through this assay and about 20 (1%) showed an effect of 50% or more. This is one part of the list.
# Tested on: T1, E. coli pLC1021 (luc-trpAt trans-translation reporter)
# T1 construct: pLC1021 luc-trpAt reporter strain
# Set-up: species or system Escherichia coli pLC1021; luc-trpAt non-stop luciferase reporter; luminescence rises when trans-translation is inhibited; normalized to KKL-35 and DMSO
# Conditions: reporter signal, KKL-35 = 100%; rise means trans-translation inhibition; 2 h, 20 µM
# How it was run: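 Luminescence (560 nm, 10 min after Bright-Glo) reports luciferase that escapes trans-translation tagging, measured after 2 h room-temperature treatment with 20 µM compound. Each plate was scaled between DMSO (negative) and 20 µM KKL-35 (positive) controls. Compounds scoring one standard deviation above the median counted as positive; at least two biological repeats.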
row,Compound,% activation [%]
1,O=c1c2ccccc2nc(/C=C/c2ccc([N+](=O)[O-])o2)n1-c1cccc(O)c1 [KKL-0713],0
2,CCc1ccccc1-n1c(=O)oc2ccc(Cl)cc2c1=O [KKL-0917],1
3,O=C(NCCCn1ccnc1)c1cccnc1Nc1cccc(C(F)(F)F)c1 [KKL-0554],15
4,CC(C)(C)c1cc(NCc2ccccn2)n2ncc(-c3ccc(Cl)cc3)c2n1 [KKL-1001],4
5,COc1cc(Nc2ccccc2)ccc1NS(=O)(=O)c1c(C)noc1C [KKL-1713],6
6,Clc1ccc(OCCCn2ccnc2)cc1Cl [KKL-1272],0
7,CS(=O)(=O)Cc1nc2ccccc2oc1=O [KKL-1609],0
8,Cc1ccc(Nc2c(-c3ccccn3)nc3cccc(C)n23)cc1 [KKL-1136],0
9,Cc1cccc(-n2cc(CN(C)Cc3cccnc3)c(-c3cccc(F)c3)n2)c1 [KKL-0648],12
10,CCOC(=O)C1CCN(C2=NC(=O)/C(=C\c3ccc(Cl)cc3Cl)S2)CC1 [KKL-0394],0
11,N#C/C(=C/c1cn(-c2ccccc2)nc1-c1cccc(OCc2ccc(F)cc2)c1)C(=O)NCCCn1ccnc1 [KKL-0888],0
12,Cc1ccc(-c2csc(NC(=O)CSc3nc4ccccc4c(=O)n3CCCN(C)C)n2)cc1 [KKL-0801],0
13,COc1ccc(Nc2nc(-c3ccccn3)cs2)c(OC)c1 [KKL-0921],0
14,Cc1ccc(-c2nnc3sc(CCc4ccccc4)nn23)cc1 [KKL-1048],0
15,c1ccc(CCNc2cc(-c3ccccc3)nc3nncn23)cc1 [KKL-1689],2
16,CC(=O)Oc1cccc2ccc(/C=C/c3cccs3)nc12 [KKL-1297],33
17,C=CCN(CC=C)C(=S)NC(=O)c1ccc(F)cc1 [KKL-0580],20
18,Nc1ccc(S(=O)(=O)Nc2ccnn2-c2ccccc2)cc1 [KKL-1876],2
19,Cc1ccc(OC(=O)c2ccccc2Cl)cc1C [KKL-0329],0
20,N#Cc1cc(Oc2ccc(OCc3ccccc3)cc2)c([N+](=O)[O-])cc1C#N [KKL-0738],5
21,COC(=O)COc1ccc(NC(=O)c2ccc(-c3ccccc3)cc2)cc1 [KKL-1562],4
22,Cc1ccc(NC(=O)CN2CCC(c3nc4cc(Cl)ccc4[nH]3)CC2)cc1 [KKL-1247],0

# Shown as tab-separated lines: 4 of the compounds above.
row	Compound	% activation [%]
4	CC(C)(C)c1cc(NCc2ccccn2)n2ncc(-c3ccc(Cl)cc3)c2n1 [KKL-1001]	4
5	COc1cc(Nc2ccccc2)ccc1NS(=O)(=O)c1c(C)noc1C [KKL-1713]	6
13	COc1ccc(Nc2nc(-c3ccccn3)cs2)c(OC)c1 [KKL-0921]	0
17	C=CCN(CC=C)C(=S)NC(=O)c1ccc(F)cc1 [KKL-0580]	20

# The listing continues:

row,Compound,% activation [%]
1,CC1CCCC(NCC(O)COC(c2ccc(F)cc2)c2ccc(F)cc2)C1C (stereo not drawn) [KKL-0822],0
2,CCCCCCCn1c(NC(=O)CC)nc2ccccc21 [KKL-0373],27
3,Cc1cccc(C(=O)Nc2ccc(C(=O)/C=C/c3cccnc3)cc2)c1 [KKL-1084],5
4,CC(C)(C)c1ccc(C(=O)NC(=S)NCc2ccco2)cc1 [KKL-0564],0
5,CC(C)(C)c1ccc(C(=O)CC(=O)c2cc(Cl)ccc2O)cc1 [KKL-1081],3
6,COc1ccc(O)c(CN2CCCC(N3CCN(c4cccc(C(F)(F)F)c4)CC3)C2)c1 (stereo not drawn) [KKL-0660],1
7,Cc1ccc(CSCC(=O)Nc2ccc(Cl)c(Cl)c2)cc1 [KKL-1340],0
8,C[C@@H](NCCc1nc(-c2cn(C)c3ccccc23)no1)C1CCCCC1 [KKL-1716],3
9,COc1cc(/C=C/c2ccc3c([N+](=O)[O-])cccc3n2)ccc1OCC(=O)O [KKL-0939],0
10,CN(C)c1ccc(Nc2nc(-c3ccccn3)cs2)cc1 [KKL-0770],0
11,Cc1ccc2oc(C(=O)N3CCN(Cc4ccccc4F)C[C@@H]3C(C)C)cc(=O)c2c1 [KKL-1268],0
12,NC(=O)c1ccc(CN(C2CC2)S(=O)(=O)c2ccccc2F)cc1 [KKL-1719],0
13,COc1cccc(OC)c1-c1cnnc(NCc2cccc(SC)c2)n1 [KKL-0627],1
14,OC(COCCC12CC3CC(CC(C3)C1)C2)CN1CCc2ccccc2C1 (stereo not drawn) [KKL-0790],0
15,O=C(Oc1cccc2cccnc12)c1ccccc1F [KKL-0435],0
16,CCOc1ccc(NC(=O)CSc2nc3ccc([N+](=O)[O-])cc3s2)cc1 [KKL-1417],0
17,CCc1c(C)sc2ncn(C3CCN(C(=O)c4nccc5ccccc45)CC3)c(=O)c12 [KKL-0513],3
18,Clc1ccc(Nc2nc(-c3ccccn3)cs2)nc1 [KKL-1793],0
19,CC(C)(C)c1cc(Cl)c(O)c(NC(=S)NC(=O)c2cccnc2)c1 [KKL-1270],0
20,CC(=O)c1ccc(NCCC(=O)c2ccco2)cc1 [KKL-1470],4
21,CNc1nc(SCC(=O)N(C)Cc2ccc(Cl)s2)nc2ccccc12 [KKL-1768],0
22,Cc1ccc(OCC(O)CN2CCN(CC(O)COc3ccc(C)cc3C)CC2)c(C)c1 (stereo not drawn) [KKL-1486],2

row,Compound,% activation [%]
1,Cc1sc2nc(-c3ccccn3)nc(O)c2c1-c1ccccc1 [KKL-0802],26
2,Cc1ccc(-n2cc(CNC(C)c3csc(C)n3)c(-c3cccc(C)c3)n2)cc1 (stereo not drawn) [KKL-0500],0
3,CCN1CCN(c2cc3c(cc2F)c(=O)c(C(=O)O)cn3C2CC2)CC1 [KKL-0903],6
4,O=C(CCl)N(c1ccccc1)c1c[nH]c2ccccc12 [KKL-0995],0
5,Cn1nc([N+](=O)[O-])nc1Sc1nnc(-c2cccnc2)o1 [KKL-1345],0
6,COC(=O)CSc1nc2c(c(-c3ccco3)c1C#N)CCCC2 [KKL-0885],8
7,O=C1N(c2ccc3c(c2)OCCO3)C(c2ccccc2)C1(F)F (stereo not drawn) [KKL-0848],0
8,O=C(CCSc1ccc(Cl)cc1)Nc1nc(-c2ccccn2)cs1 [KKL-1742],10
9,O=C(COc1ccc2c(-c3ccccc3)cc(=O)oc2c1)OC1CCCCC1 [KKL-0860],0
10,Cc1cccc(OCc2nnc(SCC(=O)OC3CCCCC3)o2)c1 [KKL-1659],0
11,Cn1c(NC(=O)c2ccccc2)nc2ccccc21 [KKL-1377],0
12,Cc1ccc2nc(C)c(-c3ccn(Cc4ccccc4)n3)n2c1 [KKL-1873],3
13,N#Cc1nc(-c2ccccc2F)oc1NCCc1ccccc1 [KKL-1796],0
14,Cc1ccc(C2CC(C(F)(F)F)n3nc(C(=O)NCc4ccco4)cc3N2)cc1 (stereo not drawn) [KKL-1125],0
15,Cc1ccc(SCCNC(=O)c2c(-c3ccccc3)noc2C)cc1 [KKL-1806],1
16,O=C(NCc1ccco1)N1CCN(Cc2ccc(Cl)s2)CC1 [KKL-1727],3
17,Cc1cc(OC(=O)C2CC2)c2c3c(c(=O)oc2c1)CCCC3 [KKL-0717],10
18,CCC1c2ccc(C)n2CCN1Cc1cnn(Cc2ccccc2)c1C (stereo not drawn) [KKL-0515],0
19,Cc1cccc(OCCCCc2c(C)n[nH]c2C)c1C [KKL-1099],1
20,N#Cc1cc2c(ccc3ccccc32)oc1=O [KKL-1386],0
21,Cc1cc(NC(=O)CSc2nnnn2-c2ccccc2C)no1 [KKL-0567],0
22,Cc1ccc(-n2cc(-c3ccccc3)c3c(NCc4cccnc4)ncnc32)cc1 [KKL-1567],0

row,Compound,% activation [%]
1,CCCC(=O)N1CCN(c2ccc(NC(=O)c3ccc([N+](=O)[O-])o3)cc2Cl)CC1 [KKL-1635],0
2,COC(=O)COc1cccc(NC(=O)COc2ccccc2)c1 [KKL-0968],0
3,CCOc1ccccc1C1c2[nH]c3ccccc3c2CCN1Cc1cc2ccccc2nc1O (stereo not drawn) [KKL-0655],9
4,COc1cccc(NC(=O)CSc2nnc(-c3ccc(Br)cc3)o2)c1 [KKL-1288],6
5,Cc1c(-c2ccccc2)n[nH]c1C(=O)NCCCc1ccc(F)cc1 [KKL-0685],0
6,O=C(Oc1cccc2cccnc12)c1ccc(S(=O)(=O)N2CCCCC2)cc1 [KKL-0609],0
7,CCCC(NC(=O)c1cnc(SC)nc1)c1cccs1 (stereo not drawn) [KKL-0695],2
8,COc1cccc(/C=C2\Sc3ccc(C(=O)NCc4cccnc4)cc3N(C)C2=O)c1 [KKL-1127],0
9,COc1cccc(OC)c1C(=O)Nc1ccc(Cl)c(-c2nc3ccccc3s2)c1 [KKL-1559],0
10,Cc1c(CN2CCC(O)(c3ccc(F)cc3)CC2)[nH]c2ccc(F)cc12 [KKL-0937],0
11,O=C(Nc1nc(-c2ccccn2)cs1)c1cc(Cl)ccc1[N+](=O)[O-] [KKL-0799],16
12,Cc1nc(N2CCN(Cc3ccc4c(c3)OCO4)CC2)c2cc(-c3ccccc3)sc2n1 [KKL-1242],9
13,Cc1cccc(Nc2nnc(SCC(=O)Nc3cccnc3Cl)s2)c1 [KKL-0387],0
14,O=C(CC(O)(C(F)(F)F)C(F)(F)F)Nc1cccc(C(F)(F)F)c1 [KKL-0396],28
15,Cc1cc(C)nc(/N=C(\N)Nc2cc(Cl)ccc2Oc2ccccc2)n1 [KKL-0289],0
16,CSc1ncc(C(=O)NC(c2cccs2)C(C)C)cn1 (stereo not drawn) [KKL-0686],0
17,CCOC(=O)COc1ccc2ccccc2c1/C=C/[N+](=O)[O-] [KKL-1518],0
18,COC(=O)[C@@H]1Cc2c([nH]c3ccccc23)[C@H]2C[C@@H](N3CC[C@@H](O)C3)C[C@@H](c3ccc(C(F)(F)F)cc3)N21 [KKL-0312],2
19,CCOC(=O)c1cnc(-n2nc(C)cc2C)nc1NC1CCCC1 [KKL-0899],4
20,CC12CC3CC(C)(C1)CC(CNCc1ccccc1O)(C3)C2 [KKL-1484],3
21,Cc1c(C(=O)Oc2cccc3cccnc23)oc2ccccc12 [KKL-1058],10
